Assay [1] concerns the target EZH2, endogenous in glioma spheres (human (endogenous in patient-derived glioma spheres g528 and g83)) (UniProt Q15910). Kind of assay: co-IP.
The target of another assay is GST-EZH2 (UniProt Q15910). Kind of assay: pull-down.

Amino acid sequences for entries named in this document (tags omitted).
UniProt Q15910: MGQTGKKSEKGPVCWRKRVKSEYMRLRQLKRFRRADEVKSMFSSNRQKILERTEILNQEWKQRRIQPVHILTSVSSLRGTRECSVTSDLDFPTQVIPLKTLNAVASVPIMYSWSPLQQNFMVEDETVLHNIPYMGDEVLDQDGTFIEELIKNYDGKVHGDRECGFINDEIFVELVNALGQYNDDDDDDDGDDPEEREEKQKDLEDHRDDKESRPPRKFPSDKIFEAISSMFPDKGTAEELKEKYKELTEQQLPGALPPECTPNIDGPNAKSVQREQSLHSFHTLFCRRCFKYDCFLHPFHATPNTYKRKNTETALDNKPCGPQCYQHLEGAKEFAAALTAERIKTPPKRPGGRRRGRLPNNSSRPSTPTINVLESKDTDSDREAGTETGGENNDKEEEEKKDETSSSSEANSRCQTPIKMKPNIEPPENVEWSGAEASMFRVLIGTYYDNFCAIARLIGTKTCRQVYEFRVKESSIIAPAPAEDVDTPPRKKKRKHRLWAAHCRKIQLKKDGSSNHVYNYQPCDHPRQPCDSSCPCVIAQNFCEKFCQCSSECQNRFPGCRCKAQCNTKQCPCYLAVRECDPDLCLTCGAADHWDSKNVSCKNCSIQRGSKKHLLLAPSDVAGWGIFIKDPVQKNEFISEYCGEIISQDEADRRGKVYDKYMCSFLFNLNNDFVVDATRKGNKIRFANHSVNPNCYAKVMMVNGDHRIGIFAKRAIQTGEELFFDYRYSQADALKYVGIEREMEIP

No constants are given. Whether binding was seen depends on the method and setting. In cells and extracts the contact can be indirect. Some binding calls cover weakened binding; strength is not graded here.

B1: NEK2 (serine/threonine kinase NEK2), endogenous in glioma spheres (enzyme, UniProt P51955 1-445)
chain: MPSRAEDYEVLYTIGTGSYGRCQKIRRKSDGKILVWKELDYGSMTEAEKQMLVSEVNLLRELKHPNIVRYYDRIIDRTNTTLYIVMEYCEGGDLASVITKGTKERQYLDEEFVLRVMTQLTLALKECHRRSDGGHTVLHRDLKPANVFLDGKQNVKLGDFGLARILNHDTSFAKTFVGTPYYMSPEQMNRMSYNEKSDIWSLGCLLYELCALMPPFTAFSQKELAGKIREGKFRRIPYRYSDELNEIITRMLNLKDYHRPSVEEILENPLIADLVADEQRRNLERRGRQLGEPEKSQDSSPVLSELKLKEIQLQERERALKAREERLEQKEQELCVRERLAEDKLARAENLLKNYSLLKERKFLSLASNPELLNLPSSVIKKKVHFSGESKENIMRSENSESQLTSKSKCKDLKKRLHAAQLRAQALSDIEKNYQLKSRQILGMR
For the molecule B1, in assay [1], the binding result is “binds”.

B2: NEK2 wild type (overexpression vector) (enzyme, UniProt P51955 1-445)
chain: B1 chain
On to B2, for which, in the assay with GST-EZH2, the binding entry was “binds”.

These data come from article doi:10.1101/2020.12.01.405696.
